The text below walks through data of article PMC10893521, “Influence of Desialylation on the Drug Binding Affinity of Human Alpha-1-Acid Glycoprotein Assessed by Microscale Thermophoresis” (Pharmaceutics, 2024).

Assay [1] addresses T1, Native human AAG (alpha-1-acid glycoprotein, orosomucoid).
T1 construct: gene ORM1; native human plasma protein, 183 residues, two cystine bridges, five N-glycans, fully sialylated (IS 270)
The experiment in a line: microscale thermophoresis, RED-NHS labelled protein, […] fit. It counts as binding. The following applies: 25 mM sodium phosphate pH 7.4, 0.05% Tween 20, 5% DMSO, room temperature, 20 nM AAG.

Another assay deals with T2, Desialylated human AAG.
T2 construct: gene ORM1
The description is as above. It counts as binding. The following applies: 25 mM sodium phosphate pH 7.4, 0.05% Tween 20, 5% DMSO, room temperature, 20 nM AAG.

As for `CC(C)NCC(O)COc1cccc2ccccc12` (racemic) [propranolol], the dissociation constant Kd in assay [1] is 811 µM; on Desialylated human AAG it was 1200 µM.

In general, Kd refers to the constant that tells how readily two partners part at equilibrium.
